Some of the results follow.
compound: CN1C2=C(C3=C1C(=O)N(N=C3)CC4=CC(=CC=C4)N)SC(=C2)S(=O)C; experiment: log2 fold change, soluble protein after heating vs DMSO (PISA); higher = thermal stabilisation; K562 cells, 10 uM, 30 min; active = over 0.2 and 3.5 SD of the protein, either way, in both replicates (recomputed)
Procedure, shortened: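 Thermal stability values are relative to control samples and come from duplicates. They are expressed as log2 fold changes. For measurement, K562 cells (2×10^6 cells/mL) received 10 μM compound for 30 min, and aliquots were heated for 3 min over 48°C-58°C, pooled, and extracted at 4°C in PBS with 0.5% NP-40. Soluble protein, the supernatant after 21,000xg for 90 min, was quantified by TMTpro 16plex LC-MS/MS with equalised channel sums.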

By UniProt entry, the sequences of proteins in these tests, tags left out. Where a name states a change or a piece, a line headed by the entry shows the natural chain unless it says otherwise.
UniProt Q9Y225: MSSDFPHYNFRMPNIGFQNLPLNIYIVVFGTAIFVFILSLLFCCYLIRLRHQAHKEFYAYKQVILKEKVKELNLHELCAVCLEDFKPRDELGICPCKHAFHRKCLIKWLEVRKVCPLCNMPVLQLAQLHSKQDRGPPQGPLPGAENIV
UniProt Q6JBY9, whole entry, looked up: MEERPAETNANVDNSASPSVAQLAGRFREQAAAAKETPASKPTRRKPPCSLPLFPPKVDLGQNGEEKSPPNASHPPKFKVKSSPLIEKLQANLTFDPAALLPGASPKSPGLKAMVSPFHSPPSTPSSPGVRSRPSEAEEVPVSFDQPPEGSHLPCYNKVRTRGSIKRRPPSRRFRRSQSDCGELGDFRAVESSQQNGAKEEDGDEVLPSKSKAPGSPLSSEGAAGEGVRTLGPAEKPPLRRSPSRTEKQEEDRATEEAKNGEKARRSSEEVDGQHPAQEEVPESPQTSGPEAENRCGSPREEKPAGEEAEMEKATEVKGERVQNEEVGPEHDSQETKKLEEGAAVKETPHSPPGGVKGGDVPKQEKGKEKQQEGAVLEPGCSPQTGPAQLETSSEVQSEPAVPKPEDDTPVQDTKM
UniProt Q9NWS8: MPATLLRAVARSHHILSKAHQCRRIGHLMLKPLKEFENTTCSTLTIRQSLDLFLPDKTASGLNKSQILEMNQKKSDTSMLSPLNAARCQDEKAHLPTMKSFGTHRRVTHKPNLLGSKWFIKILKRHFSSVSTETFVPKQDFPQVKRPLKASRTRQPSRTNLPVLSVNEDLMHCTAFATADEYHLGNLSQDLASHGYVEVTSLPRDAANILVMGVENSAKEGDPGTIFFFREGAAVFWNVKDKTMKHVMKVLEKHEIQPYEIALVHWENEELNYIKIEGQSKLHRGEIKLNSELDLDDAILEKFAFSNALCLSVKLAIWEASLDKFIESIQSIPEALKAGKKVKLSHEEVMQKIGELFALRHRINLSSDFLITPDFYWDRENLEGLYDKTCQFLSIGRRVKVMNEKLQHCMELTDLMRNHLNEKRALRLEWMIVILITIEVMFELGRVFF
UniProt Q6NUK4: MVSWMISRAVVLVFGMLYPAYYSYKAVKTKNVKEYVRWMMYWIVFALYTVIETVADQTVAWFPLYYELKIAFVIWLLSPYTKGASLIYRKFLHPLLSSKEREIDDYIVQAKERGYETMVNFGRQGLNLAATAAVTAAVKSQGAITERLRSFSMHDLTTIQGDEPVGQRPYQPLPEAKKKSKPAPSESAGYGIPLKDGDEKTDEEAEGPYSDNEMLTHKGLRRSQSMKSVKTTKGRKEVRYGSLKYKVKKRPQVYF
UniProt P22670: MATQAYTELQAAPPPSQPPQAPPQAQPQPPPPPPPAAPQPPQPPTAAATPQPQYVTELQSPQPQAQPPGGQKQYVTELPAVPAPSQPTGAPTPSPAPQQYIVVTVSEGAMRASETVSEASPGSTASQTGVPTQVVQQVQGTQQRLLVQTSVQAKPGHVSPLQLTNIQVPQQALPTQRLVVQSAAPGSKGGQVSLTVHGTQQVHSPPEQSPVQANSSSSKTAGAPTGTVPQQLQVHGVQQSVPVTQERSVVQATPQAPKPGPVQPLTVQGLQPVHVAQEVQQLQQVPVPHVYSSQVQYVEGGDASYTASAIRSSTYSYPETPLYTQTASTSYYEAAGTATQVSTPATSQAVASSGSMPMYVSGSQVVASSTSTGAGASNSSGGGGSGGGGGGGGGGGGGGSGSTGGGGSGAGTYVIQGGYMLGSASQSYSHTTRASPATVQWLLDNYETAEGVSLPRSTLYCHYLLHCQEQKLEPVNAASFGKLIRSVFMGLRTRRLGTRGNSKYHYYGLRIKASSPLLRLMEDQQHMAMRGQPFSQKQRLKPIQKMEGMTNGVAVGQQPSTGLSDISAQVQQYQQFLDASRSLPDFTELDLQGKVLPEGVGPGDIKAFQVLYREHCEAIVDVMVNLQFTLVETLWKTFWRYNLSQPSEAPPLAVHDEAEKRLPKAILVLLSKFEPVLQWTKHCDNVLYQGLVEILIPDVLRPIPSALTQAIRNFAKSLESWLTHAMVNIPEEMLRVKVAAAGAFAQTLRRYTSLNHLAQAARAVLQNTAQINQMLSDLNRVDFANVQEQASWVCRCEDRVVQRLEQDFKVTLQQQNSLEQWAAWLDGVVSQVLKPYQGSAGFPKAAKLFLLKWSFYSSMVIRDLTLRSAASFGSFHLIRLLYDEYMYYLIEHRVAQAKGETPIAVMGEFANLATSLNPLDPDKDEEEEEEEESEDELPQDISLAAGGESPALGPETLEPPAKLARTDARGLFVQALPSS
UniProt P38159: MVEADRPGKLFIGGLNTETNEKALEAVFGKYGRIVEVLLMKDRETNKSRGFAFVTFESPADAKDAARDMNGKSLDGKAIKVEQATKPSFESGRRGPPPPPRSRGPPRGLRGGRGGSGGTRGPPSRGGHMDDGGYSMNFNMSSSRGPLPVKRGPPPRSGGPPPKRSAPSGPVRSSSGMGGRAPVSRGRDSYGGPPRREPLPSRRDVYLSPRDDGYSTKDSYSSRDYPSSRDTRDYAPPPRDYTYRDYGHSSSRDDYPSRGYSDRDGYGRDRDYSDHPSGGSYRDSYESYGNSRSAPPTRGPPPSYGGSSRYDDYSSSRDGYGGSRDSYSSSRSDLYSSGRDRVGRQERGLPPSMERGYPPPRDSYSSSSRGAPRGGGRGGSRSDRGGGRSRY
UniProt Q8IXI1, whole entry, looked up: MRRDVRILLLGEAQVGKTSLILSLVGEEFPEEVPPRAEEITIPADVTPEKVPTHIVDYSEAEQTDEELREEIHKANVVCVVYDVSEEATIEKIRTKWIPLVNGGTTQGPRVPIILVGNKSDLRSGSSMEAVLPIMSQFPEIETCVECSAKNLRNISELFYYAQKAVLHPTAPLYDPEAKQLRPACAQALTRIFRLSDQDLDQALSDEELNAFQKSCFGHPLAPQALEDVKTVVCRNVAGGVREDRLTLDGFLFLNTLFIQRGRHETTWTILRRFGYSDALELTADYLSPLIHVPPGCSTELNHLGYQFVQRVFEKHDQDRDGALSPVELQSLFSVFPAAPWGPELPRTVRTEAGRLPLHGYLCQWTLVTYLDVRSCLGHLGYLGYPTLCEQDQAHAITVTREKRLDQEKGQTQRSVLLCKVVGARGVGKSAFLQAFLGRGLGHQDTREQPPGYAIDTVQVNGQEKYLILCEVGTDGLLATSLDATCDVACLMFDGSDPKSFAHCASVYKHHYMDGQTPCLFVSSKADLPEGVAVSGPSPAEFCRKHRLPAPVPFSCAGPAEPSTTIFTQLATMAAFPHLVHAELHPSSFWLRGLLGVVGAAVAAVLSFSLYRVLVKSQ
UniProt Q02094: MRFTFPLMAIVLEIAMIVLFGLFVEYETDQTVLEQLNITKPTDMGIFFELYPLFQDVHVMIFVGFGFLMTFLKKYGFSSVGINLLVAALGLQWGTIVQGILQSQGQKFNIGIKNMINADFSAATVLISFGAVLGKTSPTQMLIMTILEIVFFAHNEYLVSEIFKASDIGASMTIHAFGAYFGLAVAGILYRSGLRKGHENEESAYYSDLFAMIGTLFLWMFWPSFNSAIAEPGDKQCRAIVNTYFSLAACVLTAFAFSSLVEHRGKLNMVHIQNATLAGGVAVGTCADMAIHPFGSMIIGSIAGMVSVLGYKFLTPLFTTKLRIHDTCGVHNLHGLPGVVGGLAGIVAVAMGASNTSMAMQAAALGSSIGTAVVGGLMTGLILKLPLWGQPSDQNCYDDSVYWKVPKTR
UniProt Q9P258, whole entry, looked up: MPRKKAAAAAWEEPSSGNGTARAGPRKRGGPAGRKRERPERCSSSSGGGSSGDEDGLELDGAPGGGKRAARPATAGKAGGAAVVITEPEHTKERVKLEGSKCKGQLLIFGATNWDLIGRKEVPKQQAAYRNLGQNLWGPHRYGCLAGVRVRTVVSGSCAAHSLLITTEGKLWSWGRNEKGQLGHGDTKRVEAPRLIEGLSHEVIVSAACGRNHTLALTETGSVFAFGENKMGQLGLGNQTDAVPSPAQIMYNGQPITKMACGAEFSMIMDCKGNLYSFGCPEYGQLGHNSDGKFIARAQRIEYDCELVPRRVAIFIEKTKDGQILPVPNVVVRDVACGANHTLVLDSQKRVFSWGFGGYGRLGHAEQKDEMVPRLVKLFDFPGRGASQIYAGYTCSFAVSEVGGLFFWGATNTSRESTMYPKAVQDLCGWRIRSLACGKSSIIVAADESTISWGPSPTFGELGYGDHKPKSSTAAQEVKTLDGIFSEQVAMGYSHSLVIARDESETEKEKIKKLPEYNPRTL
UniProt Q96AA3: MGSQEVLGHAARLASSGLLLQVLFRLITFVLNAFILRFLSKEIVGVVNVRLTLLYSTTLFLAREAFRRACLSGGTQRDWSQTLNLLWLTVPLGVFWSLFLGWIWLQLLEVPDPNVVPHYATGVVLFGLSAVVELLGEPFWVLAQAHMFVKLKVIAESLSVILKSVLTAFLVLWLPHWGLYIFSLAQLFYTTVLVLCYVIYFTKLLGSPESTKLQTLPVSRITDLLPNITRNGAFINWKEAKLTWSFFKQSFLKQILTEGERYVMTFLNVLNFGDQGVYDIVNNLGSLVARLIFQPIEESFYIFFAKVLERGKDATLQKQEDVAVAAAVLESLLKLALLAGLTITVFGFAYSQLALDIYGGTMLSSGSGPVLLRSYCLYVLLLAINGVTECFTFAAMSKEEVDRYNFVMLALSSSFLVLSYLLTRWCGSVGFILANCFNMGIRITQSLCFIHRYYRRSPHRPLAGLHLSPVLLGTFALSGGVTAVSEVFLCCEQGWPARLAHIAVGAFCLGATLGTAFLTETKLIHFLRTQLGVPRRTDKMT
UniProt Q9Y3B8: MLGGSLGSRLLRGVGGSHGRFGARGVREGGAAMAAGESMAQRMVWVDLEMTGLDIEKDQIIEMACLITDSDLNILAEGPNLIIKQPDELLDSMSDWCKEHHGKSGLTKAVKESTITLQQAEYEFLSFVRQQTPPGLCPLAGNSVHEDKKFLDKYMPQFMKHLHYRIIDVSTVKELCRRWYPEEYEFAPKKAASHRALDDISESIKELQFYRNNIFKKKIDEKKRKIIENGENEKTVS
UniProt P62745, whole entry, looked up: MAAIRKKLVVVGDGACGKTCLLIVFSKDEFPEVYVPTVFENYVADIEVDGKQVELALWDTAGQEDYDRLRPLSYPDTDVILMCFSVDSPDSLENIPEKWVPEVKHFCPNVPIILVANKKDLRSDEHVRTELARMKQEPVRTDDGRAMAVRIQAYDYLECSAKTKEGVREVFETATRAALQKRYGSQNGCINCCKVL
UniProt Q8TEB9: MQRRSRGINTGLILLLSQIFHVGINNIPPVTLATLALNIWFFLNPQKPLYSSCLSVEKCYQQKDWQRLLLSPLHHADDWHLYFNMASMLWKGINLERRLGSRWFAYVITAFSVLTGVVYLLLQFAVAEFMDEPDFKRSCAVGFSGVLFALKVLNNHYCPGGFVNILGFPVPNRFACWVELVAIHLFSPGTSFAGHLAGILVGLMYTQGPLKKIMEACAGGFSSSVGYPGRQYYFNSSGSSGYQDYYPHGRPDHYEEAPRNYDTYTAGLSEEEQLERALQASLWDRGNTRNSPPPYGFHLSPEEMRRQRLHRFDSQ
UniProt P51606: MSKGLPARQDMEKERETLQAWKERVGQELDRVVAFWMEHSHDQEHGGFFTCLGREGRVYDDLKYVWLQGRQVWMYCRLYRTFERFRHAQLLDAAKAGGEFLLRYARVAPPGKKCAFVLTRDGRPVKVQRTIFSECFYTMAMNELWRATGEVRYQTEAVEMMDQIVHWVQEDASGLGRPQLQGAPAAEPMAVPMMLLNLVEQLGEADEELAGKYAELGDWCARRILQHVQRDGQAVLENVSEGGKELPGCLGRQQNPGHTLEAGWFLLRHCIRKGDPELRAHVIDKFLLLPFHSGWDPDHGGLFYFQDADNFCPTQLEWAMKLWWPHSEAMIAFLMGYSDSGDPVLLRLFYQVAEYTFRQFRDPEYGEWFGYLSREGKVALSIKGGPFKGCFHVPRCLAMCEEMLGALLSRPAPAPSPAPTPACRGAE
UniProt Q9BWE0: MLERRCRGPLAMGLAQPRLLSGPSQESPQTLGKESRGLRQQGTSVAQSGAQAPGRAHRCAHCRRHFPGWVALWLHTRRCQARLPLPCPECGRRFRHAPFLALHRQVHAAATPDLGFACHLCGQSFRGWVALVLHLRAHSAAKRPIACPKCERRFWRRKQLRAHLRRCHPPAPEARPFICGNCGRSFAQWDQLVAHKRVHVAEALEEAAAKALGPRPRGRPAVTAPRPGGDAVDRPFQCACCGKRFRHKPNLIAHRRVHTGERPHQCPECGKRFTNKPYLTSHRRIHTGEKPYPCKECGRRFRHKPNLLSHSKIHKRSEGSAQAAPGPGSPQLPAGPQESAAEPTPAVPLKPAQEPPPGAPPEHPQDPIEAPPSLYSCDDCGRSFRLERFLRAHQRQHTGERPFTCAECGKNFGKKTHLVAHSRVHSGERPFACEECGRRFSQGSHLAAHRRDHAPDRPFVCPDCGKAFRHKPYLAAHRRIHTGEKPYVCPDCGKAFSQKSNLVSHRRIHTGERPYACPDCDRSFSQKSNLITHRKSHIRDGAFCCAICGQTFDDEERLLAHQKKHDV

log2 fold change, inactive:
RNF24 isoform 2 (UniProt Q9Y225) 0.109, RFK (UniProt Q969G6) 0.016, RNF181 (UniProt Q9P0P0) -0.045, RHOG (UniProt P84095) -0.041, RCSD1 (UniProt Q6JBY9) -0.051, RMND1 (UniProt Q9NWS8) -0.005, RNF213 isoform 4 (UniProt Q63HN8) 0.038, REPS1 (UniProt Q96D71) 0.226, REEP3 (UniProt Q6NUK4) 0.119, RFX1 (UniProt P22670) -0.025, RBMX (UniProt P38159) 0.25, RIOK1 (UniProt Q9BRS2) -0.023, RHOT2 (UniProt Q8IXI1) 0.011, RILP (UniProt Q96NA2) -0.065, RHAG (UniProt Q02094) 0, RCC2 (UniProt Q9P258) -0.076, RFT1 (UniProt Q96AA3) 0.028, RBPJ (UniProt Q06330) -0.048, REXO2 (UniProt Q9Y3B8) -0.067, RDX (UniProt P35241) -0.039, RHOC (UniProt P08134) -0.093, RNF113A (UniProt O15541) -0.056, RBM38 (UniProt Q9H0Z9) -0.039, RHOB (UniProt P62745) 0.059, RHBDD1 (UniProt Q8TEB9) -0.037, RNF114 (UniProt Q9Y508) -0.081, RCN2 isoform 2 (UniProt Q14257) -0.009, RNF214 (UniProt Q8ND24) 0.026, RELN (UniProt P78509) 0.062, RCC1L (UniProt Q96I51) -0.023, REEP5 (UniProt Q00765) -0.07, RMDN3 (UniProt Q96TC7) -0.021, RENBP (UniProt P51606) -0.044, RFC4 (UniProt P35249) -0.045, REEP6 (UniProt Q96HR9) 0.025, RMDN1 (UniProt Q96DB5) -0.073, RCCD1 (UniProt A6NED2) 0.013, REPIN1 isoform 4 (UniProt Q9BWE0) -0.008
